Data from patent US20140242609A1, “Diagnosis and treatment of kidney stones, methods and compositions therefor” (Washington University, priority 2013, published 2014).
These are yes or no findings as the source states them, for the method shown. For some assays here: In cells and extracts the contact can be indirect. Some binding calls cover weakened binding; strength is not graded here.

Legend:
[1] = target: T1, human CLDN16 (AF152101) (human, UniProt Q9Y5I7 1-235); assay: split-ubiquitin yeast 2-hybrid, yeast NMY51
T1 sequence (looked up): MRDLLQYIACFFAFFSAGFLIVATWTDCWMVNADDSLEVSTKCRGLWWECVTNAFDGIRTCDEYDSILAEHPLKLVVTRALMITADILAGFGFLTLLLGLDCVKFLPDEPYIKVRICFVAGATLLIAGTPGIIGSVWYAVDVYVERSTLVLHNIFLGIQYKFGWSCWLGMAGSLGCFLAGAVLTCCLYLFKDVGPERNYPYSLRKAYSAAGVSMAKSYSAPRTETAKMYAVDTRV

[2] = target: mouse CLDN14 (AF314089) (mouse) (UniProt Q9Z0S3); assay: split-ubiquitin yeast 2-hybrid
[3] = target: mouse CLDN14 (AF314089) (mouse) (UniProt Q9Z0S3); assay: split-ubiquitin yeast 2-hybrid, reporters HIS3, lacZ, ADE2, yeast NMY51
[4] = target: T1, human CLDN16 (AF152101); assay: co-immunoprecipitation, doubly transfected HEK293 cells
[5] = target: T1, human CLDN16 (AF152101); assay: split-ubiquitin yeast 2-hybrid, figure legend

binding [1]: binds
binding [2]: binds
binding [3]: binds
binding [4]: binds
binding [5]: binds
B1: mouse CLDN14 (AF314089) (other, UniProt Q9Z0S3 1-239, looked up)
chain: MASTAVQLLGFLLSFLGMVGTLITTILPHWRRTAHVGTNILTAVSYLKGLWMECVWHSTGIYQCQIYRSLLALPRDLQAARALMVISCLLSGMACACAVVGMKCTRCAKGTPAKTTFAVLGGALFLLAGLLCMVAVSWTTNDVVQNFYNPLLPSGMKFEIGQALYLGFISSSLSLIGGTLLCLSCQDEAPYRPYPPQSRAGATTTATAPAYRPPAAYKDNRAPSVTSAAHSGYRLNDYV
